Data source: PubChem BioAssay AID1259291 (Sanger Institute, 2017)
Assay: 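Search for gene knock-downs that act synergistically alongside anchor drugs to kill cells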 (primary screen). Cell system: HT29 human colorectal cancer cells. Reagents: siRNA pool against human genes. Treatment: anchor drugs added a day after transfection: BYL719 at 1 µM, cetuximab at 5 µg/ml or trametinib at 10 nM, or DMSO vehicle alone. Read-out: 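Replicate-averaged viability relative to non-targeting pool, robust z-score based on control wells, plus per-drug synergy score for 1 µM BYL719, 5 µg/ml cetuximab and 10 nM trametinib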. Reading the numbers: robust z-score, knock-down alone: higher = more viable cells. Hit rule: 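a knock-down alone scoring under -3 on robust z-score is called essential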. Meaning of the calls: active = essential (knock-down alone); inactive = no change alone.
This is an unselected part of 794 reagents. In the full data, 15 (1.9%) were called active. 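Calls rest on knock-down alone; drug synergy scores do not affect them; drugs added a day post-transfection, DMSO vehicle as comparison.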 Entries without a mark were called inactive. Further read-outs or replicates are left out here. Not stated in the record: the amount of reagent, the time to read-out.

no.	gene	robust z-score, knock-down alone
1	DMPK	0.552
2	DNMT3A	0.552
3	CHD9	-1.37
4	SGK3	-0.357
5	PIK3R2	-0.75
6	WNK2	0.552
7	NEK7	0.548
8	DGKH	0.552
9	RPS6KB2	0.552
10	PIP4K2B	0.525
11	N4BP2	-0.213
12	HK1	0.444
13	SYNCRIP	-1.07
14	CAMK2A	0.552
15	SRMS	-0.178
16	PKIB	-0.534
17	BMPR1B	0.552
18	MYO3A	-1.17
19	PRKAR1A	0.0416
20	TAF1	0.552
